Experimental data taken from patent US9834551B2, “Substituted pyrrolo[2,3-b]pyrazines and substituted pyrazolo[3,4-b]pyridines as ITK and JAK kinase inhibitors” (Arrien Pharmaceuticals LLC, priority 2013, dated 2017).

Tested on: IL-2 release from CD4+ T cells
Test: IL-2 release from CD4+ T cells (HTRF)
Assay type: cell-based
Details: read-out: inhibition of IL-2 release from CD4+ T cells

**Q.** For `C[C@@H]1CCN(C(=O)CC#N)C[C@@H]1N(C)c1ncnc2[nH]ccc12` [CP-690550/Tofacitinib, Tofacitinib], which IC50 is on record?
**A.** Its IC50 is 1200 nM.
